# From PMC10589313 (Nature Communications, 2023)
# The chains behind the UniProt entries cited, without tags or fusion partners.
# UniProt Q9H3N8, whole entry N147A: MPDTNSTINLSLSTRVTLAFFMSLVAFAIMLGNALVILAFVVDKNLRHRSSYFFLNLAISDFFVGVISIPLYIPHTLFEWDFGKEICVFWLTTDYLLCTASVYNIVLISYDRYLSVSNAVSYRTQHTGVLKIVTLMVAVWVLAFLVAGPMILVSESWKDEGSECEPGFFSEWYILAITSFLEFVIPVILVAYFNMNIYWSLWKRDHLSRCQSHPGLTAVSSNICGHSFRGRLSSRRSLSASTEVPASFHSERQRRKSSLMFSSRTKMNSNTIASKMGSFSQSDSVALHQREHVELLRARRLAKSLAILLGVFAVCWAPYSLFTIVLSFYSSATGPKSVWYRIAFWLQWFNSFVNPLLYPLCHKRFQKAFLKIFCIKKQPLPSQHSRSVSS
# UniProt Q9H3N8, whole entry E182N: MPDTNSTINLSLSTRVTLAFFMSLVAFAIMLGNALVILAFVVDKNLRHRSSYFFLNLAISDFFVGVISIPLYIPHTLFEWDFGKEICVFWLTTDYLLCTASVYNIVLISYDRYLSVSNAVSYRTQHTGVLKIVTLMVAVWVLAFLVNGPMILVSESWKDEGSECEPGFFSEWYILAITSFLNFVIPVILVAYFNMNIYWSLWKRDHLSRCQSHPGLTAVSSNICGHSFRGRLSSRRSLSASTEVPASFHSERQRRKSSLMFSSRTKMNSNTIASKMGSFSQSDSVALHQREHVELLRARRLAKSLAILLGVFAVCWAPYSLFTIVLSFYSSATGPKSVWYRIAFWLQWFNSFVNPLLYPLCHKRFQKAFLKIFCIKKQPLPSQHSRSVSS
# UniProt Q9H3N8, whole entry C98A: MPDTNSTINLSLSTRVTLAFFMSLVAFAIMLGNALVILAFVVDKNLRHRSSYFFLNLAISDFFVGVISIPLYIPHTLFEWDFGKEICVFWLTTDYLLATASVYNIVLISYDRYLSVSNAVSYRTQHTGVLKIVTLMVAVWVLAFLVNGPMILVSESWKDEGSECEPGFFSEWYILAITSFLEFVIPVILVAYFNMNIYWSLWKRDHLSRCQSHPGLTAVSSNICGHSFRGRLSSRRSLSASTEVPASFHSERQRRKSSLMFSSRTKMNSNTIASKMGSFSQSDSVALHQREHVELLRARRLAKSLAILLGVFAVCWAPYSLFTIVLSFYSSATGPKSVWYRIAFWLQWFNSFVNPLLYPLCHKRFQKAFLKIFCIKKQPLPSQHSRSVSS
# UniProt Q9H3N8, whole entry N147Y: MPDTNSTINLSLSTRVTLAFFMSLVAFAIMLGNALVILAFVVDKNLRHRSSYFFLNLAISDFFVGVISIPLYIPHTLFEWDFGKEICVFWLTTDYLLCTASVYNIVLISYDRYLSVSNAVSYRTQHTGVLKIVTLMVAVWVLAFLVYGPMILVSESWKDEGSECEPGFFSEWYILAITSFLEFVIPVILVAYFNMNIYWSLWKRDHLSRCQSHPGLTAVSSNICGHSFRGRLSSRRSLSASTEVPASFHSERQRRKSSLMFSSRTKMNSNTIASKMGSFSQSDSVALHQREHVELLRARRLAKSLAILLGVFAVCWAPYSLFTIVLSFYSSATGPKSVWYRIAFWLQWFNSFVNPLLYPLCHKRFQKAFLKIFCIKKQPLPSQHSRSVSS
# UniProt Q9H3N8, whole entry T99A: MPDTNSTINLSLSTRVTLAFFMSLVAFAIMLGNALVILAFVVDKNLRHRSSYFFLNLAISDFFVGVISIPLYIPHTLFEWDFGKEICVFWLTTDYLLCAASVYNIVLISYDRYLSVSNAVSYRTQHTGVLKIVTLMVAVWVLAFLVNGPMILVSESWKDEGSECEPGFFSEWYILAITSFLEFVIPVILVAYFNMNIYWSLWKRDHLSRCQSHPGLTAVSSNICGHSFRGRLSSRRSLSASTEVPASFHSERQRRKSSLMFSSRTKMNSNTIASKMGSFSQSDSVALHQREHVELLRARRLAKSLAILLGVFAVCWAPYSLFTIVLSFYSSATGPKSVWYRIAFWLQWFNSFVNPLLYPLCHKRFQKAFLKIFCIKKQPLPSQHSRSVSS
# UniProt Q9H3N8, whole entry N147W: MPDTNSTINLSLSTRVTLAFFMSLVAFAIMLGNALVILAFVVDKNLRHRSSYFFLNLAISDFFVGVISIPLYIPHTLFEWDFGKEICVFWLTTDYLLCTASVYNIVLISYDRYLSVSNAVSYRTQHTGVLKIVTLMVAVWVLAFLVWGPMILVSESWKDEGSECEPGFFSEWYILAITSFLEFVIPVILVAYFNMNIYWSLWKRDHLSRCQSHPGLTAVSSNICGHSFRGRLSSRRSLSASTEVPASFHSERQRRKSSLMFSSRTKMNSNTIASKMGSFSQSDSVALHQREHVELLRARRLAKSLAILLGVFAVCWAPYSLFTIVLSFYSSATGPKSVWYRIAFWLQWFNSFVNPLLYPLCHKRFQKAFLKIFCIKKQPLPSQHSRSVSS
# UniProt Q9H3N8, whole entry D94A: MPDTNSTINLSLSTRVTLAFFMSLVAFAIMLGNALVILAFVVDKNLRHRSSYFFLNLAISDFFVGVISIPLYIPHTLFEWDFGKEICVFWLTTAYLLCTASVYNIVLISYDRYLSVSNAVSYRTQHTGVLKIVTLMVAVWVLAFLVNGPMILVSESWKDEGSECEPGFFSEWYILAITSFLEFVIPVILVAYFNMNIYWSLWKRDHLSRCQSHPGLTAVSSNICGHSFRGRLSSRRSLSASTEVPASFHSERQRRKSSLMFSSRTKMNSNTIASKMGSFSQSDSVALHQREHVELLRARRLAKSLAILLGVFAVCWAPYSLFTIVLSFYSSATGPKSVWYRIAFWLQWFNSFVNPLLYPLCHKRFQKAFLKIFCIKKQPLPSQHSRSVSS
# UniProt Q9H3N8, whole entry Y95A: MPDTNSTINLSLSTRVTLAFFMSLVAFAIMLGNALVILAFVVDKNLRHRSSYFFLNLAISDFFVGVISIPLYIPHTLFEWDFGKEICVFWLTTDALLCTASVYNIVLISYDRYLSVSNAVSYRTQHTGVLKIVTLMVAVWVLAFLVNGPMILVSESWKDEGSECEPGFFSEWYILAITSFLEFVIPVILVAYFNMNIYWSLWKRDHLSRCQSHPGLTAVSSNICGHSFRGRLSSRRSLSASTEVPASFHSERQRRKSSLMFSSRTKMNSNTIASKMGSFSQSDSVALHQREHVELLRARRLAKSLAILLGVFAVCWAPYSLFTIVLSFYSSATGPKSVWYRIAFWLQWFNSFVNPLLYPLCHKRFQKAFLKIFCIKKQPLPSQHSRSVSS
# Where “and” joins values, the source holds several entries; their conditions need not be identical. Equal entries are not always repeated. The source gives many values for each of these; only a part stands here.
# What was measured:
# Type in all cases: cell-based
# human H4R N147A mutant = molecular target: T1, human H4R N147A mutant (Homo sapiens, UniProt Q9H3N8, N147A); test: TGFα shedding assay, H4R N147A mutant
# T1 construct: a mutant H4R (human, full-length, and untagged); expressed in transfected cells; host or cells: HEK293A
# Procedure: (§1) The mutants were prepared using the primers listed in Supplementary Table 2. […] The chimeric Gαq/i1 subunit comprises the Gαq backbone and Gαi1-derived six-amino acid C-terminus and couples with Gi-coupled H4R but induces a Gq-dependent TGFα shedding response. After culturing for 1 day and incubating at 37 °C in a 5% CO2 incubator, the transfected cells were harvested by trypsinization, neutralized with Dulbecco’s modified Eagle’s medium containing 10% fetal calf serum (FCS) and penicillin–streptomycin, washed once with Hank’s balanced salt solution (HBSS) containing 5 mM of HEPES (pH 7.4), and resuspended in 6 mL of the HEPES-containing HBSS. The cell suspension was seeded into a 96-well plate at a volume of […] per well (typically, 48 wells per transfected cells) and incubated for 30 min in the CO2 incubator. Test compounds (10×, diluted in 0.01% BSA and 5 mM of HEPES-containing HBSS, […] volume) were added to duplicate wells and incubated for 1 h. After centrifugation, the conditioned medium ([…]) was transferred to an empty 96-well plate. AP reaction solution [10 mM of p-nitrophenylphosphate (p-NPP), 120 mM of Tris–HCl (pH 9.5), 40 mM of NaCl, and 10 mM of MgCl2] was dispensed into the cell culture plates and plates containing conditioned media ([…]). Absorbance was measured at 405 nm before and after a 1-h incubation period at 25 °C using a microplate reader (iMark™ Microplate Absorbance Reader; BioRad). Ligand-induced AP-TGFα release was calculated as previously described. The vehicle-treated AP-TGFα release signal was set as a baseline unless otherwise specified. AP-TGFα release signals were fitted with a four-parameter sigmoidal concentration-response curve, from which EC50 and Emax values were obtained, using GraphPad Prism 9 software (GraphPad Prism). Negative values of logarithmically transformed EC50 values (pEC50) were used to calculate the mean and standard error of independent experiments.
# (§2) All functional study data were analyzed using Prism 9 (GraphPad) and are presented as mean ± standard error of the mean (SEM) of three independent experiments. Statistical analyses were performed using Prism 9 (GraphPad) with one-way analysis of variance followed by Dunnett’s post-hoc test. Values with p < 0.05 are considered statistically significant.
# human H4R E182N mutant = molecular target: T2, human H4R E182N mutant (Homo sapiens, UniProt Q9H3N8, E182N); test: TGFα shedding assay, H4R E182N mutant
# T2 construct: a mutant H4R (human, full-length, and untagged); expressed in transfected cells; host or cells: HEK293A
# Procedure: as §1, §2
# human H4R C98A mutant = molecular target: T3, human H4R C98A mutant (Homo sapiens, UniProt Q9H3N8, C98A); test: TGFα shedding assay, H4R C98A mutant
# T3 construct: a mutant H4R (human, full-length, and untagged); expressed in transfected cells; host or cells: HEK293A
# Procedure: as §1, §2
# human H4R N147Y mutant = molecular target: T4, human H4R N147Y mutant (Homo sapiens, UniProt Q9H3N8, N147Y); test: TGFα shedding assay, H4R N147Y mutant
# T4 construct: a mutant H4R (human, full-length, and untagged); expressed in transfected cells; host or cells: HEK293A
# Procedure: as §1, §2
# human H4R T99A mutant = molecular target: T5, human H4R T99A mutant (Homo sapiens, UniProt Q9H3N8, T99A); test: TGFα shedding assay, H4R T99A mutant
# T5 construct: a mutant H4R (human, full-length, and untagged); expressed in transfected cells; host or cells: HEK293A
# Procedure: as §1, §2
# human H4R N147W mutant = molecular target: T6, human H4R N147W mutant (Homo sapiens, UniProt Q9H3N8, N147W); test: TGFα shedding assay, H4R N147W mutant
# T6 construct: a mutant H4R (human, full-length, and untagged); expressed in transfected cells; host or cells: HEK293A
# Procedure: as §1, §2
# human H4R D94A mutant = molecular target: T7, human H4R D94A mutant (Homo sapiens, UniProt Q9H3N8, D94A); test: TGFα shedding assay, H4R D94A mutant
# T7 construct: a mutant H4R (human, full-length, and untagged); expressed in transfected cells; host or cells: HEK293A
# Procedure: as §1, §2
# human H4R Y95A mutant = molecular target: T8, human H4R Y95A mutant (Homo sapiens, UniProt Q9H3N8, Y95A); test: TGFα shedding assay, H4R Y95A mutant
# T8 construct: a mutant H4R (human, full-length, and untagged); expressed in transfected cells; host or cells: HEK293A
# Procedure: as §1, §2
# [1] = Histamine (M) -5, raw replicates
# [2] = Histamine (M) -6, raw replicates
# [3] = Histamine (M) -7, raw replicates
# [4] = Histamine (M) -8, raw replicates
# [5] = Histamine (M) -9, raw replicates
# [6] = Histamine (M) -10, raw replicates
smiles,measurement,setting,value
"NCCc1c[nH]cn1 [Histamine, histamine]",Shedding assay,human H4R N147A mutant; [1],10.4061 and 12.4445 and 8.396 and 15.0426 and 16.8382 and 15.0732 and 11.7364 and 15.7804 and 15.0385
same,Shedding assay,human H4R N147A mutant; [2],5.741 and 10.8609 and 1.664 and 9.016 and 12.138 and 9.834 and 9.461 and 12.0236 and 12.9763
same,Shedding assay,human H4R N147A mutant; [3],1.655 and 3.5384 and -2.249 and 3.528 and 2.95 and 2.395 and 1.043 and 2.58 and 4.1364
same,Shedding assay,human H4R N147A mutant; [4],-3.407 and -1.5823 and 1.169 and 0.7407 and -1.206 and 0.6255 and -2.598 and 0.05751 and -1.889
same,Shedding assay,human H4R N147A mutant; [5],-4.666 and 0.3943 and 0.584 and 1.4037 and -0.1249 and 0.4736 and -2.098 and -1.359 and -3.573
same,Shedding assay,human H4R N147A mutant; [6],-2.611 and 1.127 (2×) and 1.607 and -1.867 and -0.2252 and -1.705 and 0.343 and -2.622
same,Shedding assay,human H4R E182N mutant; [1],2.283 and 0.3446 and -0.7988 and 1.144 and 1.489 and 0.4153 and -0.269 and 1.255 and 1.07
same,Shedding assay,human H4R E182N mutant; [2],1.4011 and 1.681 and -0.5177 and -0.1049 and 1.1703 and 0.4282 and -1.63 and -0.5758 and -6.389
same,Shedding assay,human H4R E182N mutant; [3],-1.167 and -1.6961 and -0.3592 and 0.8974 and -2.519 and -1.404 and -0.7728 and -0.31 and -3.26
same,Shedding assay,human H4R E182N mutant; [4],-2.792 and -1.087 and -2.247 and 0.5182 and -3.215 and -0.05429 and -2.711 and -1.032 and -0.8917
same,Shedding assay,human H4R E182N mutant; [5],-2.095 and -1.621 and -1.3247 and -1.362 and -3.388 and -0.4552 and -4.619 and -0.5505 and 2
same,Shedding assay,human H4R E182N mutant; [6],-2.037 and -0.5594 and -1.805 and 0.7761 and -1.742 and 0.02137 and -1.808 and 0.1874 and 0.3802
same,Shedding assay,human H4R C98A mutant; [1],14.0761 and 13.0306 and 15.3801 and 14.3097 and 16.1295 and 15.6589 and 11.2456 and 17.6619 and 19.1026
same,Shedding assay,human H4R C98A mutant; [2],5.435 and 5.689 and 6.993 and 3.179 and 8.045 and 5.041 and 11.1173 and 5.623 and 9.968
same,Shedding assay,human H4R C98A mutant; [3],1.098 and 0.1734 and 2.653 and -0.7217 and 0.4464 and -16.3414 and 3.994 and -4.307 and 1.4085
same,Shedding assay,human H4R C98A mutant; [4],0.9963 and -0.6657 and 1.892 and -3.236 and -0.7519 and -10.6874 and 4.811 and -6.9 and 1.124
same,Shedding assay,human H4R C98A mutant; [5],0.2357 and -0.08985 and 1.169 and -4.604 and 1.265 and 3.021 and 3.385 and -3.516 and 0.4855
same,Shedding assay,human H4R C98A mutant; [6],-0.2955 and 1.5585 and 1.271 and -0.5371 and 0.2242 and -1.083 and 3.32 and -0.4573 and -1.124
same,Shedding assay,human H4R N147Y mutant; [1],13.7821 and 13.3478 and 12.298 and 12.8327 and 10.2802 and 12.0547 and 11.8144 and 13.2013 and 13.0412
same,Shedding assay,human H4R N147Y mutant; [2],11.4452 and 12.4855 and 11.893 and 9.67 and 9.387 and 10.7722 and 12.2374 and 14.504 and 13.4798
same,Shedding assay,human H4R N147Y mutant; [3],7.681 and 7.528 and 5.139 and 6.132 and 4.155 and 5.617 and 6.671 and 8.401 and 8.0366
same,Shedding assay,human H4R N147Y mutant; [4],2.314 and 0.9657 and 0.6398 and 0.6078 and -0.9168 and -2.246 and 0.06933 and 1.443 and 1.999
same,Shedding assay,human H4R N147Y mutant; [5],0.4611 and -0.4229 and -0.9874 and -0.3819 and -0.892 and -2.342 and -0.7097 and -1.522 and -0.7838
same,Shedding assay,human H4R N147Y mutant; [6],-0.3603 and -1.895 and -1.262 and -0.19 and -1.83 and -2.274 and -0.5814 and 0.8897 and 0.6654
same,Shedding assay,human H4R T99A mutant; [1],18.2052 and 32.5905 and 16.8537 and 31.7808 and 29.7103 and 34.4811 and 15.8247 and 17.4448 and 16.925
same,Shedding assay,human H4R T99A mutant; [2],13.2241 and 23.9164 and 10.9821 and 27.1415 and 25.8559 and 30.2883 and 11.7617 and 10.9719 and 11.2113
same,Shedding assay,human H4R T99A mutant; [3],5.162 and 14.3843 and 7.929 and 17.2954 and 13.901 and 14.2605 and 5.373 and 6.529 and 5.716
same,Shedding assay,human H4R T99A mutant; [4],-4.2708 and 7.237 and 0.9758 and 4.661 and 2.68 and 3.92 and -0.3411 and 1.285 and -0.7717
same,Shedding assay,human H4R T99A mutant; [5],-2.9591 and 3.985 and -1.556 and 2.388 and -1.793 and 1.392 and -1.415 and -0.5215 and -1.893
same,Shedding assay,human H4R T99A mutant; [6],-1.542 and -5.2111 and -5.302 and 1.645 and -0.2888 and 1.08 and -2.176 and -1.164 and -2.05
same,Shedding assay,human H4R N147W mutant; [1],5.381 and 9.222 and 9.42 and 10.1239 and 15.5017 and 13.2278 and 5.507 and 4.882 and 4.724
same,Shedding assay,human H4R N147W mutant; [2],2.032 and -0.8561 and 1.551 and -0.1708 and 6.864 and 2.726 and 0.302 and -0.9008 and -0.6812
same,Shedding assay,human H4R N147W mutant; [3],0.7568 and -4.789 and -0.4819 and -0.7461 and 3.628 and 1.9087 and -0.5968 and -1.731 and -1.483
same,Shedding assay,human H4R N147W mutant; [4],0.1994 and -4.789 and 0.8514 and -1.102 and 2.7386 and 0.1171 and -0.4388 and -1.4186 and -2.027
same,Shedding assay,human H4R N147W mutant; [5],0.5359 and -5.097 and 0.1294 and -0.9018 and 1.429 and 0.8614 and -1.72 and -5.799 and -1.852
same,Shedding assay,human H4R N147W mutant; [6],-0.6476 and -0.9197 and -1.455 and -0.06231 and 2.797 and 1.015 and -0.4662 and -0.7572 and -1.335
same,Shedding assay,human H4R D94A mutant; [1],-2.627 and -0.5435 and -1.634 and 0.2165 and 1.147 and 2.538 and -1.401 and -0.5234 and 4.792
same,Shedding assay,human H4R D94A mutant; [2],-2.905 and -1.315 and -1.632 and 2.459 and 0.7774 and 3.096 and -0.3815 and -0.8815 and 2.002
same,Shedding assay,human H4R D94A mutant; [3],-3.462 and -2.691 and -1.9326 and 1.564 and -0.214 and 0.4839 and -2.735 and -1.851 and 4.699
same,Shedding assay,human H4R D94A mutant; [4],-2.53 and -1.213 and -2.2775 and 1.276 and -0.4549 and 1.763 and -3.129 and -3.122 and 5.7144
same,Shedding assay,human H4R D94A mutant; [5],-1.034 and -1.549 and -1.1201 and 0.4177 and -3.096 and 1.249 and -5.99 and 0.07075 and 5.674
same,Shedding assay,human H4R D94A mutant; [6],-2.758 and -0.6865 and -1.195 and 1.168 and -0.634 and 1.295 and -0.9831 and 1.667 and 7.52
same,Shedding assay,human H4R Y95A mutant; [1],6.183 and 5.172 and 7.902 and 6.184 and 3.683 and 11.5556 and 7.447 and 8.205 and 7.387
same,Shedding assay,human H4R Y95A mutant; [2],1.605 and 0.1712 and 3.752 and 0.9166 and 2.1167 and -4.444 and 1.447 and 4.174 and 3.275
same,Shedding assay,human H4R Y95A mutant; [3],-0.832 and -2.636 and 0.9201 and -0.7225 and 0.7174 and -7.161 and -2.328 and -0.0448 and -1.764
